Measured values: patent publication US20050192236A1 (priority 2001, published 2005)
Structures can show the parent of a compound that is named as a salt. Where two headings read alike, the source gives them in different places. Each block holds one compound with its values, some of them ahead of it.

Columns and labels:
[1] = for moisture sorbed by the amorphous material at 80% RH: second scan; for water content retained at moderate humidity condition: 10%-80% RH, 4-scan DMSG; for water content of the material (DMSG, start of the run): as received, ambient humidity
Protocol: Approximately 10 mg samples were used in the balance, samples were run as received. The humidity was set at ambient conditions on the day analysis began. […] The scan rate was 3% RH/step. The mass was measured every two minutes and an equilibrium window of 5 points within 0.001 mg. […] The Visual Basic program dmsgscn2.exe was used to control the data collection and export the information to an Excel spreadsheet.
(§1) The humidity was set at ambient conditions on the day analysis began. […] The mass was measured every two minutes and an equilibrium window of 5 points within 0.001 mg.
as §1

[2] = cited from earlier work
[3] = trituration in aqueous media, or stressed humidity conditions

moisture sorbed from 70% RH to 90% RH ([1]; first scan, ambient to 90% RH, 25° C.): about 2%
humidity range in which the crystalline form is stable ([1]; moderate humidity condition, 3-scan DMSG): 10%-90%
SMILES: CCC[C@@H]1C[C@@H](C(=O)NC(C(C)Cl)C2OC(SC)C(O)C(O)C2O)N(C)C1 (stereo partly drawn) [Form I, 7(S)-chloro-7-deoxylincomycin]

SMILES: CCC[C@@H]1C[C@@H](C(=O)N[C@@H]([C@H]2O[C@H](SC)[C@H](O)[C@@H](O)[C@H]2O)[C@H](C)Cl)N(C)C1 [Clindamycin hydrochloride, clindamycin hydrochloride]
absorption following oral administration [2]: rapid and nearly complete

moisture sorbed by the amorphous material at 80% RH ([1]; amorphous material obtained from Form II): approximately 2%
moisture sorbed by the amorphous material at 80% RH ([1]; amorphous material obtained from Form III): about 6%
SMILES: CCC[C@@H]1C[C@@H](C(=O)NC(C(C)Cl)C2OC(SC)C(O)C(O)C2O)N(C)C1 (stereo partly drawn) [7(S)-chloro-7-deoxylincomycin, reference compound]

water content retained at moderate humidity condition [1]: about 2%
water content of the material (DMSG, start of the run) ([1]; 25° C.): approximately 2%
conversion of crystal form [3]: convert to Form I
SMILES: CCC[C@@H]1C[C@@H](C(=O)NC(C(C)Cl)C2OC(SC)C(O)C(O)C2O)N(C)C1 (stereo partly drawn) [Form II, 7(S)-chloro-7-deoxylincomycin]

water content retained at moderate humidity condition [1]: about 4.5%
water content of the material (DMSG, start of the run) ([1]; 25° C.): approximately 4.5%
moisture content lost from ambient down to about 6% RH ([1]; first scan, ambient to 0% RH): about 1.5%
SMILES: CCC[C@@H]1C[C@@H](C(=O)NC(C(C)Cl)C2OC(SC)C(O)C(O)C2O)N(C)C1 (stereo partly drawn) [Form III, 7(S)-chloro-7-deoxylincomycin]
